# Hit rate of the full screen: of about 320,000 compounds, about 22,000 (6.9%) were called active. Inconclusive results, whose numbers are uncertain, are shown with a selection of clear calls. Calls come from the whole dose curve; as a rule, active = well fitted inhibition curve with a large enough effect; inconclusive = small, poorly fitted or top-dose-only effect, or another doubt; inactive = no such curve, though single readings can be large or run the other way. A potency beside an inconclusive call is a rough fit, not a confirmed value.
# Assay: Primary qHTS for delayed death inhibitors of the malarial parasite plastid, 96 hour incubation
# Details: P. falciparum luciferase reporter growth; series mostly up to 28.7 µM
# Method in brief: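 Parasite growth measured via integrated firefly luciferase reporter in P. falciparum. Infected erythrocytes at 2% hematocrit, 0.05% parasitemia final were treated 96 hours at 37 C under 5% CO2, and luminescence was read.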
# Potency is the fitted concentration of half-maximal effect.
row,Compound,Potency
1,CC(NC(=O)CCCc1ccccc1)c1ccncc1 (centres undefined),inactive
2,Cc1noc(C(=O)Nc2c(C)n(C)n(-c3ccccc3)c2=O)c1Cl,"inconclusive: 18.5 µM [inhibitor, single point]"
3,CNS(=O)(=O)c1cccc(C(=O)OCCCOC(=O)c2cccc(S(=O)(=O)NC)c2)c1,"inconclusive: 18.5 µM [inhibitor, single point]"
4,Cc1cc(C)n(-c2ccc(Cl)c(C(=O)Nc3ccc(-c4nnc5n4CCCCC5)cc3)n2)n1,active: 8.28 µM
5,O=C(CNC(c1ccccc1)c1ccccc1)Nc1ccc(F)cc1,"inconclusive: 18.5 µM [inhibitor, single point]"
6,COc1ccc2c(c1)[nH]c1c(=O)n(CCN3CCCC3)cnc12,inactive
7,Cc1ccccc1OCc1n[nH]c(=S)n1Cc1ccccc1,"inconclusive: 16.5 µM [inhibitor, single point]"
8,CC(=O)c1cccc(NC(=S)NC2CC2)c1,"inconclusive: 11.7 µM [inhibitor, single point]"
9,O=C(CO/N=C/c1ccccc1O)N1CCc2ccccc21,inactive
10,O=C(NN1CCOCC1)c1cccc(Cl)c1,"inconclusive: 7.38 µM [inhibitor, partial curve]"
11,O=[N+]([O-])c1ccc(Cl)c(S(=O)(=O)Nc2ccc(-c3ccc(N4CCCC4)nn3)cc2)c1,"inconclusive: 11.7 µM [inhibitor, single point]"
12,O=C(Nc1ccc(Br)cc1)c1cccc(N2C(=O)C3CCCCC3C2=O)c1 (centres undefined),inactive
13,Cc1c(C(=O)N(C)CCCCN2CCOCC2)oc2c(F)cccc12,"inconclusive: 18.5 µM [inhibitor, single point]"
14,COc1cc(NC(=O)c2ccco2)c(OC)cc1NC(=O)CCC(=O)Nc1cccc(C)c1C,active: 5.22 µM
15,CCN(CC1CCCO1)C(=O)CCc1nnc(Cc2ccc3c(c2)OCO3)o1 (centres undefined),"inconclusive: 1.04 µM [inhibitor, partial curve, poor fit]"
16,CCOc1ccc(CCNC(=O)c2cc(=O)[nH]c3ccc(S(=O)(=O)N(CC)CC)cc23)cc1OCC,"inconclusive: 9.28 µM [inhibitor, partial curve, poor fit]"
17,c1ccc(N2CCN(c3nc4ccccc4n4cnnc34)CC2)cc1,active: 4.15 µM
18,O=c1c2ccccc2nc(SCc2cn3ccsc3n2)n1-c1ccc(F)cc1,"inconclusive: 0.0586 µM [inhibitor, full curve]"
19,COc1ccc(S(=O)(=O)N(C)c2ccc(C(=O)NC3CC3)cc2)cc1,"inconclusive: 20.8 µM [inhibitor, single point]"

# 2 neighbouring compounds already listed:
row,Compound,Potency
6,COc1ccc2c(c1)[nH]c1c(=O)n(CCN3CCCC3)cnc12,inactive
7,Cc1ccccc1OCc1n[nH]c(=S)n1Cc1ccccc1,"inconclusive: 16.5 µM [inhibitor, single point]"

# Source: PubChem BioAssay AID504834 (National Center for Advancing Translational Sciences (NCATS), 2011)
